System: histamine-induced contractions of isolated ileum
Experiment: Antagonism of histamine-induced contractions of isolated guinea-pig ileum
Assay type: cell-based
Settings: Cavia porcellus, read-out: Antagonistic to Histam., IC50
Procedure: The interaction of the compounds with different receptors was evaluated on the isolated ileum of a guinea-pig according to the following method.
2.5-3 cm segments of the guinea-pigs, ileum were washed and immediately suspended in a bath containing 10 ml of a Tyrode solution at 37° C. and aerated with a mixture of oxygen (95%) and carbon dioxide (5%). After a stabilization period of at least 30 minutes, the contractions are recorded, maintaining the preparation under constant pressure of 1 g, using a sensor connected to a polygraph. […] The following dose was only added to the bath after the preparation returned to its base line. Arecoline was used as reference product. The antagonistic action was evaluated on contractions induced by acetylcholine (1×10^-6 M), histamine (1×10^-5 M) and barium chloride (2×10^-5 M). […] The contact time before adding the agonist was one minute.
For each compound the dose-response curves are obtained with 4 to 6 different concentrations and 3 to 5 independent tests. The agonistic activity is expressed by pD2 (negative logarithm of the dose which produces 50% of the maximum effect). The antagonistic activity is expressed by IC50 (concentration inhibiting 50% of the maximum response).

Structure (SMILES): CN(C)CCOC(c1ccccc1)c1ccccc1 [Diphenydramin, diphenydramine, reference compound]
- IC50: 830 nM
